According to PubChem BioAssay AID504847 (National Center for Advancing Translational Sciences (NCATS), 2011):
Hit rate of the full screen: of about 400,000 compounds, about 3,700 (0.93%) were called active. This list was built around the results that the source calls inconclusive (neither active nor inactive); the mix of calls is not that of the screen. Calls come from the whole dose curve; as a rule, active = well fitted inhibition curve with a large enough effect; inconclusive = small, poorly fitted or top-dose-only effect, or another doubt; inactive = no such curve, though single readings can be large or run the other way. Potencies beside an inconclusive call are fits to weak or partial responses and may not hold up.

Chains of the proteins cited; added tags and fusions are not shown. Lines headed by an entry give the natural chain unless they say otherwise; changes in a name come on top.
UniProt P11473: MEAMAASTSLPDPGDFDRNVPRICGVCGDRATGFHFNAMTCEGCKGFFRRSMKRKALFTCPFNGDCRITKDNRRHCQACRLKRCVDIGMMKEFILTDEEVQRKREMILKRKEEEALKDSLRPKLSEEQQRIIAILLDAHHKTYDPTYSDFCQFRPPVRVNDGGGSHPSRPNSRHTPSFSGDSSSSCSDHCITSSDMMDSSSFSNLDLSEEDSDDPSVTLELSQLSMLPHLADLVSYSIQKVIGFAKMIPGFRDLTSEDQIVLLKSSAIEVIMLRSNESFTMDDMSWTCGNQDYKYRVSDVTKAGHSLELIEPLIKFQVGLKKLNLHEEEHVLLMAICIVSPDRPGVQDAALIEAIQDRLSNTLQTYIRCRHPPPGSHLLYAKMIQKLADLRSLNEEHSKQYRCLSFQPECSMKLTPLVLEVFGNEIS

Target: Vitamin D3 receptor (Homo sapiens) (UniProt P11473)
Experiment: Inhibitors of the vitamin D receptor (VDR): qHTS
Conditions: VDR-SRC2-3 peptide fluorescence polarization, 2 h; max response, negative = inhibition: active compounds read low
Outline: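 Fluorescence polarization assay of small-molecule disruption of VDR binding to coregulator peptide SRC2-3. Compounds and controls pin-transferred, then read after 2 h incubation at ambient room temperature.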
% is set by controls: 0 for no effect and ±100 for the full control effect; potency is the fitted concentration of half-maximal effect.

Q: Which max response, negative = inhibition does the source give for `CC(C1CC1)N(Cc1ccccc1)C(=S)Nc1cccc(C(F)(F)F)c1` (stereo not drawn) here?
A: inactive: -18.9%

Q: Which Potency does the source give for `COc1cccc(/C=C/C(=O)c2c(O)cc(C)oc2=O)c1O` here?
A: inconclusive: 79.4 µM [inhibitor, single point]

Q: For `O=C(Nc1ccccc1F)C1CCCN(S(=O)(=O)c2ccccc2)C1` (stereo not drawn), which Potency is on record?
A: inconclusive: 15.8 µM [inhibitor, full curve, poor fit]

Q: For `Cc1ccc(C)c(N2CCN(C(=O)Cn3cnc4onc(-c5ccc(F)cc5)c4c3=O)CC2)c1`, which max response, negative = inhibition is on record?
A: inactive: 17.7%

Q: `CCN(CC)c1ccc(/C=N/N2CCN(Cc3ccc(C)cc3)CC2)c(O)c1` was tested. Which Potency did it give?
A: inconclusive: 28.2 µM [inhibitor, partial curve, poor fit]

Q: How did the max response, negative = inhibition turn out when `O=[N+]([O-])c1ccc(COc2cccc(CNc3ccc(F)cc3)c2)cc1` was run?
A: inactive: -8.62%

Q: How did the max response, negative = inhibition turn out when `COc1ccc(C(=O)c2oc3ccccc3c2NC(=O)c2cc(=O)c3ccc(C)cc3o2)cc1Cl` was run?
A: inactive: -7.39%

Q: For `O=Cc1coc2ccc3ccccc3c2c1=O`, which Potency is on record?
A: inconclusive: 79.4 µM [inhibitor, single point]

Q: With `O=[N+]([O-])c1ccccc1-c1ccc(C(=S)N2CCCC2)o1` as the compound, how does the Potency read?
A: active: 39.8 µM

Q: Which Potency does the source give for `COc1ccc(-c2nc3ccccc3o2)cc1OC` here?
A: inconclusive: 89.1 µM [inhibitor, partial curve, poor fit]

Q: For `Cn1cccc1C(=O)N1CCC[C@@]2(CCN(Cc3ccc(C#N)cc3)C2)C1`, which Potency is on record?
A: inconclusive: 89.1 µM [inhibitor, partial curve, poor fit]

Q: With `CSc1nc2nc3c(cc2c(=O)n1-c1ccccc1C)CCCC3` as the compound, how does the max response, negative = inhibition read?
A: inactive: 21.5%

Q: For `COc1ccc(CCn2c(C)cc(C(=O)COC(=O)c3cnc(C)cn3)c2C)cc1`, which max response, negative = inhibition is on record?
A: inactive: 4.05%

Q: Which max response, negative = inhibition does the source give for `COc1ccc(NC(=O)C2CCN(C(=O)[C@@H]3Cc4ccccc4CN3)CC2)cc1` here?
A: inactive: -11%

Q: How did the Potency turn out when `COC(=O)N1CCC[C@@]2(CCN(c3ccccc3)C2)C1` was run?
A: inconclusive: 44.7 µM [inhibitor, partial curve]

Q: `O=C(O)c1ccc(NC(=S)NC(=O)c2ccc(-c3ccc(Br)cc3)o2)cc1` was tested. Which Potency did it give?
A: inconclusive: 79.4 µM [inhibitor, partial curve, poor fit]

Q: How did the Potency turn out when `O=C1NC(=S)SC1=Cc1cc(Br)ccc1O` was run?
A: inconclusive: 89.1 µM [inhibitor, single point]

Q: `O=C(CCNc1ccc(F)cc1)c1cc2ccccc2o1` was tested. Which Potency did it give?
A: inconclusive: 79.4 µM [inhibitor, single point]

Q: For `O=[N+]([O-])c1ccc(CSc2ncnc3c2ncn3[C@@H]2O[C@H](CO)[C@@H](O)[C@H]2O)cc1`, which Potency is on record?
A: inconclusive: 50.1 µM [inhibitor, partial curve, poor fit]

Q: How did the Potency turn out when `O=S(=O)(c1ccccc1)N1CCC2(CCCN(Cc3ccncc3)C2)CC1` was run?
A: inconclusive: 89.1 µM [inhibitor, partial curve, poor fit]

Q: For `Cc1cc(C(=O)N/N=C/c2ccc([N+](=O)[O-])cc2)c2ccccc2n1`, which max response, negative = inhibition is on record?
A: inactive: -15.7%

Q: For `O=Nc1ccc2oc(=O)ccc2c1`, which Potency is on record?
A: active: 12.6 µM

Q: How did the Potency turn out when `CCOC(=O)N1CCC(NC(=O)c2cc3c(C)nc4ccccc4c3o2)CC1` was run?
A: inconclusive: 15.8 µM [inhibitor, partial curve, poor fit]

Q: `COc1cc(C(=O)OCC(=O)NCCCc2ccccc2)ccc1OCC(C)C` was tested. Which Potency did it give?
A: inconclusive: 39.8 µM [inhibitor, single point]

Q: `Cc1cc(O)c(C(C)C)cc1NC(=S)Nc1cc(C(C)C)c(O)cc1C` was tested. Which Potency did it give?
A: inconclusive: 89.1 µM [inhibitor, single point]

Q: Which max response, negative = inhibition does the source give for `COC(=O)C1[C@H]2C(=O)N(Cc3cccs3)C[C@]23C=C[C@H]1O3` (stereo partly drawn) here?
A: inactive: -14.4%

Q: Which Potency does the source give for `C[C@H]1CN([C@@H](C)CO)C(=O)c2cc(NS(=O)(=O)c3ccc(Cl)cc3)ccc2O[C@@H]1CN(C)CC1CCCCC1` here?
A: active: 89.1 µM

Q: Which max response, negative = inhibition does the source give for `CC(=O)c1ccc2c(c1)CCN2` here?
A: inactive: 6.2%

Q: Which Potency does the source give for `COc1ccc(NC(=S)NCCN2CCC(C)CC2)cc1Cl` here?
A: inconclusive: 89.1 µM [inhibitor, single point]

Q: For `COc1ccc2c(c1)c(=O)oc1c(C)c(OC(C)C(=O)N[C@@H](Cc3c[nH]c4ccc(O)cc34)C(=O)O)ccc12` (stereo partly drawn), which max response, negative = inhibition is on record?
A: inactive: -6.07%

Q: Which Potency does the source give for `COc1c(O)cc2oc(-c3ccc(O)c(O)c3)cc(=O)c2c1O` here?
A: inconclusive: 39.8 µM [inhibitor, partial curve, poor fit]

Q: `COc1ccc(Nc2ccc3c(c2)=NC2(CCCCC2)[N+]=3[O-])cc1` was tested. Which Potency did it give?
A: inconclusive: 89.1 µM [inhibitor, single point]

Q: `Cc1ccc(NC(=S)N(CCC(C)C)C(C)c2ccncc2)c(Cl)c1` (stereo not drawn) was tested. Which max response, negative = inhibition did it give?
A: inactive: -13.8%

Q: `Oc1[nH]c2ccc(Br)cc2c1N=NC(=S)N1CCOCC1` was tested. Which max response, negative = inhibition did it give?
A: inactive: -7.76%

Q: For `O=C(NCCc1ccc(F)cc1)c1ccc(S(=O)(=O)N2CCCCC2)cc1`, which Potency is on record?
A: inconclusive: 89.1 µM [inhibitor, single point]

Q: For `N#Cc1ccccc1OCc1cn(CC(=O)c2ccc(O)cc2)nn1`, which Potency is on record?
A: inconclusive: 79.4 µM [inhibitor, partial curve, poor fit]

Q: For `CCOc1ccc(CN2CCN(C(=O)c3ccco3)CC2)cc1`, which max response, negative = inhibition is on record?
A: inactive: -21.5%

Q: With `Cc1ccc(OCCN2C(=O)S/C(=C\c3ccc(C)o3)C2=O)cc1` as the compound, how does the Potency read?
A: inconclusive: 100 µM [inhibitor, partial curve, poor fit]

Q: With `CCOc1ccc(C(=O)Cn2c(=O)n3nc(CCn4nc(C)cc4C)nc3c3cc(OC)c(OC)cc32)cc1` as the compound, how does the max response, negative = inhibition read?
A: inactive: -2.63%

Q: Which Potency does the source give for `CCc1ccc(N2CC(C(=O)N/N=C/c3ccccc3)CC2=O)cc1` (stereo not drawn) here?
A: inconclusive: 89.1 µM [inhibitor, partial curve]

Q: `CCNc1cc(O)ccc1C` was tested. Which Potency did it give?
A: active: 79.4 µM

Q: `CCCCOc1ccc(N(CC(=O)NC2CCCCC2)C(=O)c2snc(C(N)=O)c2N)cc1` was tested. Which Potency did it give?
A: inconclusive: 70.8 µM [inhibitor, partial curve, poor fit]

Q: Which Potency does the source give for `Cc1ccc(C(=O)OCC(=O)N(CC(C)C)c2c(N)n(Cc3ccccc3)c(=O)[nH]c2=O)o1` here?
A: inconclusive: 100 µM [inhibitor, single point]
